{
  "source": "patent US20140255921",
  "key": {"[1]": {"target": "T1, Hel308 Mbu (Methanococcoides burtonii) (UniProt Q12WZ6)", "T1 sequence": "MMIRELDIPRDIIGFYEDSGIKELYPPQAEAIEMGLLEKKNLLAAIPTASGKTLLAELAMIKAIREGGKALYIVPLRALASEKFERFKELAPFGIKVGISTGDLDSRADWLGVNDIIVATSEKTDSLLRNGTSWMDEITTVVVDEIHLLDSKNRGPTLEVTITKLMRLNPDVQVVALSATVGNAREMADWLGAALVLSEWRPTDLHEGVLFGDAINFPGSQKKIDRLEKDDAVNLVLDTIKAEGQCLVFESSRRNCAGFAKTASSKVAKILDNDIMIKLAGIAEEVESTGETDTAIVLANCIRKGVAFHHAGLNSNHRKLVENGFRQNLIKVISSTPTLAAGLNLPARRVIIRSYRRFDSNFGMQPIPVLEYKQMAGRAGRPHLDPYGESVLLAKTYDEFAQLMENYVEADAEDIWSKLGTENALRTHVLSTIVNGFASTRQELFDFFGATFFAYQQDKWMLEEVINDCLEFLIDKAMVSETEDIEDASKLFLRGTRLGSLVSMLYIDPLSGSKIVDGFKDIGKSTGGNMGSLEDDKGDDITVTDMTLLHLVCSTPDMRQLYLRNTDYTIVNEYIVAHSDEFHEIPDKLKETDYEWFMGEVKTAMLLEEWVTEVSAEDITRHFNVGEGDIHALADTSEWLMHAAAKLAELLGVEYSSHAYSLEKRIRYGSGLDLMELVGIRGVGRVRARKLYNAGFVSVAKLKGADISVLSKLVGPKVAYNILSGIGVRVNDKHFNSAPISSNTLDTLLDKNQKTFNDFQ", "assay": "activity assay", "details": "1 mM ATP, purified recombinant protein, protein details: ONLP3302"}, "[2]": {"test_system": "T2, Hel308 Mok (Methanothermococcus okinawensis)", "T2 sequence": "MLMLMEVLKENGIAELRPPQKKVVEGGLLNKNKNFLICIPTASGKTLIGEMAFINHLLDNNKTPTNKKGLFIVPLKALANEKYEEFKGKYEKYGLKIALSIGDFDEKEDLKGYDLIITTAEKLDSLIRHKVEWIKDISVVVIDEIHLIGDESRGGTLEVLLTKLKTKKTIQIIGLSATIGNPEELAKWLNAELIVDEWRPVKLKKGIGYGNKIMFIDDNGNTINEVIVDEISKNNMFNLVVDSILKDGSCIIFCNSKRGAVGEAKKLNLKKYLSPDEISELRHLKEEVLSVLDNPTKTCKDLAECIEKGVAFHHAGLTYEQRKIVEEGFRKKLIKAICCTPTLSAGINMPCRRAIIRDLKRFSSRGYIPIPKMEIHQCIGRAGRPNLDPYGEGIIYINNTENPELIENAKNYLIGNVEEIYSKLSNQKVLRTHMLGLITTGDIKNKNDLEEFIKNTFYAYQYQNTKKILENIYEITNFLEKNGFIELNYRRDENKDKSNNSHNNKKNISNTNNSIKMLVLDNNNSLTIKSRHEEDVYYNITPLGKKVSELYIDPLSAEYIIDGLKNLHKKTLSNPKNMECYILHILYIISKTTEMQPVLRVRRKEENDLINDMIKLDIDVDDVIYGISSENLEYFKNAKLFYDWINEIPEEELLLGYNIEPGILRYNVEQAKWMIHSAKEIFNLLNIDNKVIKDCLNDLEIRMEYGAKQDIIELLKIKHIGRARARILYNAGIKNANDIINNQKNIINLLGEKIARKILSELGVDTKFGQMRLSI", "assay": "activity assay", "details": "400 mM NaCl, 1 mM ATP, 10 mM MgCl2, purified recombinant protein, label: 5' FAM and 3' BHQ1 on SEQ 72"}, "[3]": {"target": "T1, Hel308 Mbu (Methanococcoides burtonii)", "assay": "binding assay", "details": "helicase-controlled DNA movement through MspA nanopore; 400 mM-2 M KCl, 1 mM ATP, 1 mM MgCl2, pH 8.0; purified recombinant protein; protein details: ONLP3302; label: 3' cholesterol on SEQ 60"}, "[4]": {"test_system": "T3, Hel308 Mhu (Methanospirillum hungatei)", "T3 sequence": "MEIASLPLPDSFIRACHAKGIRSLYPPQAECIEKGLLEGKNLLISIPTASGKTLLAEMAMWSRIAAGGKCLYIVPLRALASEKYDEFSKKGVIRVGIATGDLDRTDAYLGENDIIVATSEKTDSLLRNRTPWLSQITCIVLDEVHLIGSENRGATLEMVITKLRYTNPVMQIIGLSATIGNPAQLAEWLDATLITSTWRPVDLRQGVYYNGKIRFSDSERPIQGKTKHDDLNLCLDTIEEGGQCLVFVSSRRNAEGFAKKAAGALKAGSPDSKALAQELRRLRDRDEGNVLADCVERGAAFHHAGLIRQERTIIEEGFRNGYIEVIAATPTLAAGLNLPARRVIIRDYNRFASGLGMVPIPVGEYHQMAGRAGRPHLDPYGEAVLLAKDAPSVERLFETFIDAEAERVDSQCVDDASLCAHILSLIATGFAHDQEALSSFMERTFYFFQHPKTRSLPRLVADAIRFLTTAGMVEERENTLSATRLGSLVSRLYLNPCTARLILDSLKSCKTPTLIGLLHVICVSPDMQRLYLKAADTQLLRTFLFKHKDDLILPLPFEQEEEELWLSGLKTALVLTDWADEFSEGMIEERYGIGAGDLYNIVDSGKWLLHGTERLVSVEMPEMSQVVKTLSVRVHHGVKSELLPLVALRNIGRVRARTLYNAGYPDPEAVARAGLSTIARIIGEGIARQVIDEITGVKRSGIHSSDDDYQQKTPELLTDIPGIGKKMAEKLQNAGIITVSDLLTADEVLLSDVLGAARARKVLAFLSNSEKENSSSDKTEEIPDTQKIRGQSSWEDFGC", "assay": "binding assay", "details": "controlled movement through MspA nanopore; 400 mM KCl, 1 mM ATP, Mg; purified recombinant protein; label: 3' cholesterol on SEQ 60"}, "[5]": {"test_system": "T4, Hel308 Mma (Methanococcus maripaludis)", "T4 sequence": "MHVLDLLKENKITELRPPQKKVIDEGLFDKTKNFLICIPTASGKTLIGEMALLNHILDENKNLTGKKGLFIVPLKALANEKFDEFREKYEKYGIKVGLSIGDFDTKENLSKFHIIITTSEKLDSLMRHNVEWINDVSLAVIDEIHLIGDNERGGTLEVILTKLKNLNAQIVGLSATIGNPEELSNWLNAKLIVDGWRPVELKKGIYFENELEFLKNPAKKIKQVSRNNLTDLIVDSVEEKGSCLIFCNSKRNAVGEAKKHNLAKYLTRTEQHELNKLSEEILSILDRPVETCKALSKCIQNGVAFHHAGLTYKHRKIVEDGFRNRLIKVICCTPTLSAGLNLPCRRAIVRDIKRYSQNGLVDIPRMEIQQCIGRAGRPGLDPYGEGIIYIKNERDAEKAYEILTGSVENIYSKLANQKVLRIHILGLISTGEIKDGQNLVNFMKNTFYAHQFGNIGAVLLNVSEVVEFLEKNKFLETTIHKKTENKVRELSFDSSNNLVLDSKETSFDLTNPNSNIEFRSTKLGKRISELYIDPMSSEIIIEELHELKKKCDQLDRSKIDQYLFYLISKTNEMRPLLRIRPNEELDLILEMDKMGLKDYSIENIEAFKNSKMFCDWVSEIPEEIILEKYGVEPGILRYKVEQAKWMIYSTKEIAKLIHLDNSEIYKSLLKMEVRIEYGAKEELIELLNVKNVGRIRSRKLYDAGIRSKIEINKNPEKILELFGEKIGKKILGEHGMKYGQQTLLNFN", "assay": "binding assay", "details": "controlled movement through MspA nanopore; 400 mM KCl, 1 mM ATP, Mg; purified recombinant protein; label: 3' cholesterol on SEQ 60"}, "[6]": {"test_system": "T2, Hel308 Mok (Methanothermococcus okinawensis)", "assay": "binding assay", "details": "controlled movement through MspA nanopore; 400 mM KCl, 1 mM ATP, Mg; purified recombinant protein; label: 3' cholesterol on SEQ 60"}},
  "note": "Protein sequences can lack the tags named with them. For some assays here: For at least one entry, the source does not settle the construct or the ends of the probe.",
  "data": [
    {"sequence": "CTATTCTGTTTATGTTTCTTGTTTGTTAGCCCTATTCTGTCCCCCCCCCCACCCCCCCCCACCCCCCCCCACCCCCCCCC / ACAGAATAGGGCTAACAAACAAGAAACATAAACAGAATAG [fluorescent unwinding substrate (Example 2)]", "values": [
      {"measurement": "activity on this sequence", "setting": "[1]; fluorescence unwinding assay, active from 400 mM to 2 M KCl, 5 mM MgCl2, pH 8.0, label: 5' FAM on SEQ 61, 3' BHQ1 on SEQ …", "result": "active"}
    ]},
    {"sequence": "TCGCTGCTCCACAGGTCTCAGCTTCCCC / TCGCTGCTCAAGCTGAGACCTGTGGAGCAGCGA [positive control processivity substrate]", "values": [
      {"measurement": "activity on this sequence", "setting": "[1]; active on positive control, 400 mM NaCl, 10 mM MgCl2, label: 5' FAM and 3' BHQ1 on SEQ 72, variant of processivity substrate", "result": "active"},
      {"measurement": "activity on this sequence", "setting": "[2]; active on positive control, variant of processivity substrate", "result": "active"}
    ]},
    {"sequence": "TCGCTGCTCCACAGGTCTCAGCTTGAGCAGCGAAAATAAGAACATTATGATCAGTAGGAGCACTACGACCTTTGTTCTGGTGCTCGTCCGGGCGCCCAAAGTGGAGCGAGTGCCCCC / GCACTCGCTCCACTTTGGGCGCCCGGACGAGCACCAGAACAAAGGTCGTAGTGCTCCTACTGATCATAATGTTCTTATTT / TCGCTGCTCAAGCTGAGACCTGTGGAGCAGCGA [processivity substrate]", "values": [
      {"measurement": "activity on this sequence", "setting": "[2]; processive: displaces 80 nt blocker and probe", "result": "active"}
    ]},
    {"sequence": "TTTTTTTTTTTTTTTTTTTTTTTTTTTTTTTTTTTTTTTTTTTTTTTTTTGGTTGTTTCTGTTGGTGCTGATATTGCTTTTGATGCCGACCCTAAATTTTTTGCCTGTTTGGTTCGCTTTGAGTCTTCTTCGGTTCCGACTACCCTCCCGACTGCCTATGATGTTTATCCTTTGAATGGTCGCCATGATGGTGGTTATTATACCGTCAAGGACTGTGTGACTATTGACGTCCTTCCCCGTACGCCGGGCAATAACGTTTATGTTGGTTTCATGGTTTGGTCTAACTTTACCGCTACTAAATGCCGCGGATTGGTTTCGCTGAATCAGGTTATTAAAGAGATTATTTGTCTCCAGCCACTTAAGTGAGGTGATTTATGTTTGGTGCTATTGCTGGCGGTATTGCTTCTGCTCTTGCTGGTGGCGCCATGTCTAAATTGTTTGGAGGCGGTC / GCAATATCAGCACCAACAGAAACAACCTTTTTTTTTTTTTTTTTTTTTTTTTTTTTT [400mer PhiX ssDNA with 50T leader and annealed primer]", "values": [
      {"measurement": "binding result", "setting": "[3]", "result": "binds"},
      {"measurement": "binding result", "setting": "[4]", "result": "binds"},
      {"measurement": "binding result", "setting": "[5]", "result": "binds"},
      {"measurement": "binding result", "setting": "[6]", "result": "binds"}
    ]}
  ]
}
